Test results: the supplement of paper PMC5949888
Most values lie at the floor of the assay. Slopes are relative: functional sequences can read slightly below zero.

Each substance was assayed on Saccharomyces cerevisiae PS128 hsf1 delta, HSF1(1-493) fusion (assay: growth estimate (transactivation domain function in HSF1 fusion, heat-shock survival) (a.u. (slope of normalised read count over time)); higher = stronger growth at 37°C, i.e. more transactivation activity). Settings: library: random library.

| Substance | growth estimate |
| --- | --- |
| SCTLNVKLGGFRTVWSSDGQ | < -0.25 |
| SCTNATVCRRGPVPTQYCIS | < -0.25 |
| SCTRLGRKRVRQVEPESGRA | < -0.25 |
| SCTTGGRYEAIGSRSNPRRQ | < -0.25 |
| SCVCFPCRTLGYG | < -0.25 |
| SCVGPEARDADPQRSCHCTL | < -0.25 |
| SCWEP | < -0.25 |
| SCWGTT | < -0.25 |
| SCYGIGGQRPHNRTHRNAKT | < -0.25 |
| SCYIVMVGKIKWLSLRLTNY | < -0.25 |
| SDCDRPARIDEV | < -0.25 |
| SDDGSRASPLLAEPLQSSRD | < -0.25 |
| SDEAQERII | < -0.25 |
| SDFGGR | < -0.25 |
| SDFW | < -0.25 |
| SDGHALLANDMLQRPAFARQ | < -0.25 |
| SDGPQARWFGLRKYMVFYF | < -0.25 |
| SDGTYQPDLVIWELDGSGSR | < -0.25 |
| SDIDPLGHRH | < -0.25 |
| SDKARTLL | < -0.25 |
| SDKCIIPTLPYGL | < -0.25 |
| SDLRKSADMVHHLKGPYRPT | -0.246 |
| SDLTALDTVI | -0.243 |
| SDMGPK | < -0.25 |

| Substance | growth estimate |
| --- | --- |
| SDNVCVYVFTPSALYQSSAL | < -0.25 |
| SDPIWLKGISKCPHVGVQGK | < -0.25 |
| SDPRVAYRLITF | < -0.25 |
| SDR | < -0.25 |
| SDREVFSKNVQEGS | < -0.25 |
| SDRPVRLSRNLDNPFYARGH | < -0.25 |
| SDRTKWATRPVPK | < -0.25 |
| SDSNLLVGATTIRGPEGVQR | < -0.25 |
| SDVERSQIFSAKPDGQAPHC | < -0.25 |
| SDWRLQKMARGWLLSSGDTS | -0.245 |
| SDYTSKPL | < -0.25 |
| SEAAVVKWGRVTVNAYPNCK | < -0.25 |
| SEAFAFYGMYRLRRRGFSEG | < -0.25 |
| SEAK | < -0.25 |
| SEASPSDGVTIPRPSLRIRA | < -0.25 |
| SEFACTDKYKQEHYCLCPAV | < -0.25 |
| SEGAPSSDSVPTLLHSCSTS | -0.25 |
| SEGLPLTFSLAVPLTSVGID | < -0.25 |
| SEGLVGSSIVPGSRSNNHAD | < -0.25 |
| SEHAYSVQVCLLLIVIDIVS | < -0.25 |
| SEHLLLLFGFFTLYKSAINL | < -0.25 |
| SEIRSLHVEF | < -0.25 |
| SELFKDLPPELRTV | < -0.25 |
| SELRRVPPKGNRTRSQRVAV | < -0.25 |

| Substance | growth estimate |
| --- | --- |
| SEMVRHHVGHCRANSENKSH | < -0.25 |
| SEMVTRGCTHRARISGVDAS | < -0.25 |
| SEQDFVSGYREKFWSYLIRV | -0.221 |
| SEQRAADT | < -0.25 |
| SEQRKRVRVRPRHERNAGSR | < -0.25 |
| SERRTKACMDRPFCLPMLCA | < -0.25 |
| SERTTSLSGDGSGIGTRVTG | < -0.25 |
| SERYRDVCRRVVKSFHSSRR | < -0.25 |
| SESILL | < -0.25 |
| SESPRIGLLQHNTALSSYGF | < -0.25 |
| SETEGTADHVGCLSSRAFQW | < -0.25 |
| SETPSCASRAGK | -0.241 |
| SETTYSAERTQF | < -0.25 |
| SEVCLSPGK | < -0.25 |
| SEVGKLRVSGSYGSFTPSLA | < -0.25 |
| SEWAGDPFTPHAISARMWWA | -0.2 |
| SEWRRAILLPISRVQPVHAW | < -0.25 |
| SEWSSDFVFSTQAPSSRLSL | < -0.25 |
| SFA | < -0.25 |
| SFCYRPMGG | < -0.25 |
| SFD | < -0.25 |
| SFDPLVNDHSGVACKLLLPR | < -0.25 |
| SFEAGSAFKRGRHCVQTSAH | < -0.25 |
| SFEIAWQKVNPVGNLVLTSA | < -0.25 |

Given bar-delimited: part of the list above.
Substance | growth estimate
SETPSCASRAGK | -0.241
SFA | < -0.25
SFD | < -0.25
SFEIAWQKVNPVGNLVLTSA | < -0.25

Additional records

| Substance | growth estimate |
| --- | --- |
| SFELEGV | < -0.25 |
| SFGGATTQ | < -0.25 |
| SFGLPGSWSVFWADEAAGLN | -0.0303 |
| SFKSLGRTRPSRPGLVSFVH | < -0.25 |
| SFLKPVTHTKRKLFI | < -0.25 |
| SFLLN | < -0.25 |
| SFLREIPK | < -0.25 |
| SFLSHIDPRLSRDTARVREM | < -0.25 |
| SFLTAKSTCVNLKAIAIDVP | < -0.25 |
| SFPVIATIRIVGADGGGEG | < -0.25 |
| SFQAMSPVTCRGDDLPGLKV | < -0.25 |
| SFQSHGFLCSRHRTRTHGIR | < -0.25 |
| SFRSSRS | < -0.25 |
| SFSYLRRGCAESDLCCQARP | < -0.25 |
| SFTEFVRVPRVKETAEGS | < -0.25 |
| SFTPRPAGRVSGRDSQSWVA | < -0.25 |
| SFVFYGPSFSERTQVTHVYT | < -0.25 |
| SFVGPS | < -0.25 |
| SFVL | < -0.25 |
| SFVTSGKAQGNARH | < -0.25 |
| SFVWGCSRSN | < -0.25 |
| SFWG | < -0.25 |
| SFYLVGLRGRFQ | < -0.25 |
| SGAATPSIQVGAGKKTIDSA | < -0.25 |

| Substance | growth estimate |
| --- | --- |
| SGAHHITVCSSLIVVILFSR | < -0.25 |
| SGALTLVNRMVFLGFRCRSV | < -0.25 |
| SGDCAHRTETHFCMDVLGGY | < -0.25 |
| SGDGQARAAMRTTGILTAGV | < -0.25 |
| SGDNLSTGTQESLLDACAK | < -0.25 |
| SGDRRSHFPGFVLVNLGQRA | < -0.25 |
| SGDVAPAILVTLMAYRCLPG | < -0.25 |
| SGENRIGPRDNGVLVRYRAR | < -0.25 |
| SGFLSPILSHIGSLMILTLR | < -0.25 |
| SGFPFDPLSFSIR | < -0.25 |
| SGGCCIVGVEIHFPRRV | < -0.25 |
| SGGGQNQGTGRFGIASL | < -0.25 |
| SGGGSTGLRYQGNTQDRSS | < -0.25 |
| SGGGTRTQCKALVTSTSTVT | < -0.25 |
| SGGIRLSVQQARASWCVVLP | < -0.25 |
| SGGPSGGACMRFAKLSLGLL | < -0.25 |
| SGGQHWASHIPLSRWIHALW | < -0.25 |
| SGGSRPKSVTG | < -0.25 |
| SGGVCRSHHQILR | < -0.25 |
| SGGVEIRGVFSTGKASE | < -0.25 |
| SGGYKTKVPGRNTYALRGRH | < -0.25 |
| SGGYQ | < -0.25 |
| SGGYRLWCTGCGPYLPTC | < -0.25 |
| SGHDTSSEFRRSVAYFSSDK | < -0.25 |

| Substance | growth estimate |
| --- | --- |
| SGHL | < -0.25 |
| SGHLTPDTWGLTPPCYNKHG | < -0.25 |
| SGHRTSRGN | < -0.25 |
| SGIISYAGLAR | < -0.25 |
| SGIRLTDRPTMNSDKGQTIP | < -0.25 |
| SGIRSVPGSPLIMADILDTC | < -0.25 |
| SGITT | < -0.25 |
| SGKAHLLSWSLSVHMHHTLG | < -0.25 |
| SGLALSQAYER | -0.243 |
| SGLEFG | < -0.25 |
| SGLHRSMVDPCIQKRPSPLA | < -0.25 |
| SGLIRMNRLRNKLLLVSSTG | < -0.25 |
| SGLLPNNCL | < -0.25 |
| SGLNCALGSAYRPFLED | < -0.25 |
| SGLPLAWPVKYNVLHECPAV | < -0.25 |
| SGMV | < -0.25 |
| SGNGVRNRQRPVGEQMGAHV | < -0.25 |
| SGNNSFWE | < -0.25 |
| SGNR | < -0.25 |
| SGNRDLLDICGQPLSKKLSG | < -0.25 |
| SGNYCRMRLQGRADRTPGTQ | < -0.25 |

Some of the entries so far, comma-delimited:
Substance,growth estimate
SCVGPEARDADPQRSCHCTL,< -0.25
SCWEP,< -0.25
SDDGSRASPLLAEPLQSSRD,< -0.25
SDEAQERII,< -0.25
SDFGGR,< -0.25
SDGPQARWFGLRKYMVFYF,< -0.25
SDGTYQPDLVIWELDGSGSR,< -0.25
SDIDPLGHRH,< -0.25
SDLTALDTVI,-0.243
SDPIWLKGISKCPHVGVQGK,< -0.25
SDREVFSKNVQEGS,< -0.25
SEAAVVKWGRVTVNAYPNCK,< -0.25
SEHLLLLFGFFTLYKSAINL,< -0.25
SELFKDLPPELRTV,< -0.25
SEQRKRVRVRPRHERNAGSR,< -0.25
SERYRDVCRRVVKSFHSSRR,< -0.25
SESPRIGLLQHNTALSSYGF,< -0.25
SETEGTADHVGCLSSRAFQW,< -0.25
SFELEGV,< -0.25
SFGGATTQ,< -0.25
SFGLPGSWSVFWADEAAGLN,-0.0303
SFLREIPK,< -0.25
SFQAMSPVTCRGDDLPGLKV,< -0.25
SFTPRPAGRVSGRDSQSWVA,< -0.25
SFYLVGLRGRFQ,< -0.25
SGGGSTGLRYQGNTQDRSS,< -0.25
SGGPSGGACMRFAKLSLGLL,< -0.25
SGGSRPKSVTG,< -0.25
SGIISYAGLAR,< -0.25
SGKAHLLSWSLSVHMHHTLG,< -0.25
SGLIRMNRLRNKLLLVSSTG,< -0.25
SGLPLAWPVKYNVLHECPAV,< -0.25
SGNRDLLDICGQPLSKKLSG,< -0.25
